PubChem BioAssay AID1224826 | NIAID – 2016

- Test: 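Genes that change LPS-induced Tnf promoter activity in mouse macrophages when knocked down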 (primary screen)
- System: RAW264.7 G9 macrophages from mouse bearing reporters for p65 (GFP) and the Tnf promoter (mCherry)
- Reagent: siRNA pool against mouse genes, 100 nM
- Time to read-out: 16 h of LPS stimulation, after 2 days of siRNA transfection
- Treatment: bacterial lipopolysaccharide (Salmonella minnesota R595), 10 ng/ml
- Detection: 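Imaged Tnf reporter mCherry in nuclei, minus background, normalised per plate to the median and expressed as robust z-scores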
- Direction: Tnf reporter robust z-score: higher = stronger Tnf promoter reporter signal after LPS
- Active means: 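Called active when robust z-score is at most -1.3, matching the median of the Tlr4 knock-down control, or over 3; control wells and wells with under 50 cells never active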
- Meaning of the calls: active = Tnf reporter clearly lowered or raised; inactive = no clear change in Tnf reporter
Shown is one part, drawn at random, of about 17,000 reagents. About 1,110 of them (6.6%) count as active. 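Active means lowered or raised reporter signal; replicate intensities are raw and not normalised per plate.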 Entries without a mark were called inactive. Further read-outs or replicates are left out here.

no.	Gene	Tnf reporter robust z-score	fewer than 50 cells in well
1	Atl1 (atlastin GTPase 1)	1.21	enough cells in well
2	Diaph3 (diaphanous related formin 3)	-0.31	enough cells in well
3	D930030D11Rik (RIKEN cDNA D930030D11 gene)	-0.5	enough cells in well
4	St18 (suppression of tumorigenicity 18)	0.47	enough cells in well
5	2300002M23Rik (RIKEN cDNA 2300002M23 gene)		fewer than 50 cells per well; well left out of calls
6	Cmklr1 (chemerin chemokine-like receptor 1)	0.41	enough cells in well
7	Pi15 (peptidase inhibitor 15)	0.86	enough cells in well
8	Osbp (oxysterol binding protein)	0.37	enough cells in well
9	Mknk1 (MAP kinase-interacting serine/threonine kinase 1)	1.11	enough cells in well
10	Htr5b (5-hydroxytryptamine (serotonin) receptor 5B)	0.44	enough cells in well
11	Frem1 (Fras1 related extracellular matrix protein 1)	0.3	enough cells in well
12	Elof1 (ELF1 homolog, elongation factor 1)	-0.51	enough cells in well
13	Slc2a5	-0.8	enough cells in well
14	Cdx4 (caudal type homeobox 4)	-0.23	enough cells in well
15	Vcam1 (vascular cell adhesion molecule 1)	0	enough cells in well
16	Morc2b (microrchidia 2B)		fewer than 50 cells per well; well left out of calls
17	Slco4c1		fewer than 50 cells per well; well left out of calls
18	Mapkapk3 (mitogen-activated protein kinase-activated protein kinase 3)	1.48	enough cells in well
19	Syncrip (synaptotagmin binding, cytoplasmic RNA interacting protein)	-0.79	enough cells in well
20	Or6c210 (olfactory receptor family 6 subfamily C member 210)		fewer than 50 cells per well; well left out of calls
21	Mcm9		fewer than 50 cells per well; well left out of calls
22	Fgf11 (fibroblast growth factor 11)	0.97	enough cells in well
23	Or52a33 (olfactory receptor family 52 subfamily A member 33)	2.18	enough cells in well
24	Supt4a (SPT4A, DSIF elongation factor subunit)	-0.35	enough cells in well
25	H2ac6 (H2A clustered histone 6)	2.36	enough cells in well
26	Cdk9 (cyclin dependent kinase 9)		fewer than 50 cells per well; well left out of calls
27	Zbtb26 (zinc finger and BTB domain containing 26)	0.47	enough cells in well
28	Lrrc1 (leucine rich repeat containing 1)	-0.52	enough cells in well
29	Amdhd2 (amidohydrolase domain containing 2)	-0.03	enough cells in well
30	Vps18 (VPS18 CORVET/HOPS core subunit)	-0.15	enough cells in well
31	Sphk2 (sphingosine kinase 2)	0.74	enough cells in well
32	Neurog1 (neurogenin 1)	0.17	enough cells in well
33	1700052K11Rik (RIKEN cDNA 1700052K11 gene)	4.77 (active)	enough cells in well
34	Mmp7 (matrix metallopeptidase 7)	-0.07	enough cells in well
35	Emp2 (epithelial membrane protein 2)	1.97	enough cells in well
36	Hmx1 (H6 homeobox 1)	-0.07	enough cells in well
37	Commd8 (COMM domain containing 8)	2.47	enough cells in well
38	Pate6 (prostate and testis expressed 6)	-1.31 (active)	enough cells in well
39	Aqp8 (aquaporin 8)	0.08	enough cells in well
40	Bpifa5 (BPI fold containing family A, member 5)		fewer than 50 cells per well; well left out of calls
41	Ddr2 (discoidin domain receptor family, member 2)	0.84	enough cells in well
42	Homer1 (homer scaffolding protein 1)	0.03	enough cells in well
43	Thap4 (THAP domain containing 4)	-0.03	enough cells in well
44	Bhmt (betaine-homocysteine methyltransferase)	-0.33	enough cells in well
45	Dclk2 (doublecortin-like kinase 2)	-0.02	enough cells in well
46	Pigw (phosphatidylinositol glycan anchor biosynthesis, class W)	4.02 (active)	enough cells in well
47	Atic	-0.55	enough cells in well
48	Cd209e (CD209e antigen)	-0.63	enough cells in well
49	Dand5 (DAN domain family member 5, BMP antagonist)	0.07	enough cells in well
50	Kif9 (kinesin family member 9)	-0.3	enough cells in well
51	B130006D01Rik (RIKEN cDNA B130006D01 gene)	-0.05	enough cells in well
52	Or8c10 (olfactory receptor family 8 subfamily C member 10)		fewer than 50 cells per well; well left out of calls
53	Slc25a14	1.37	enough cells in well
54	Pcsk1n (proprotein convertase subtilisin/kexin type 1 inhibitor)	-0.29	enough cells in well
55	Caml (calcium modulating ligand)	-0.74	enough cells in well
56	Rassf9	1.92	enough cells in well
57	Fhip1a (FHF complex subunit HOOK interacting protein 1A)	0.24	enough cells in well
58	Clec10a (C-type lectin domain family 10, member A)	0.19	enough cells in well

Not a retest: 5 of the entries above.
no.	Gene	Tnf reporter robust z-score	fewer than 50 cells in well
22	Fgf11 (fibroblast growth factor 11)	0.97	enough cells in well
23	Or52a33 (olfactory receptor family 52 subfamily A member 33)	2.18	enough cells in well
24	Supt4a (SPT4A, DSIF elongation factor subunit)	-0.35	enough cells in well
25	H2ac6 (H2A clustered histone 6)	2.36	enough cells in well
26	Cdk9 (cyclin dependent kinase 9)		fewer than 50 cells per well; well left out of calls
